# According to the supplement of paper PMC4962491:
# Where a name gives a salt, the structure may show the parent alone. ± gives the standard deviation of the averaged measurements. The list shows a part of the results, in another mix than the full data. This data set is noisy: repeats of one test often differ as much as different tests do. Numbered stars: 1 amine (or outer) side, 2 acyl side, 3 side chain; on linkers, the order of the positions; unused ones are H or OH. Bridge positions count the residues as written; N and C are the ends. Square brackets hold non-standard residues; d marks the D form. Peptide text beside a SMILES is read from it. * marks the point of attachment. ξ: configuration not given here. X2 = N=C1NCCC([C@H](N[*:1])C(=O)[*:2])N1; ΔAla(Z-3-ureido) = NC(=O)N/C=C(\N)C(=O)O; ξβ3hOrn = NCCCC(N)CC(=O)*; Dap = NC[C@H](N)C(=O)O
# System: FaDu
# Assay: mitochondrial oxygen consumption rate normalised to cell number, Z score over the library; higher = higher oxygen consumption (negative = OCR reduction)
# Conditions: treatment time 24 h, assay medium: 5 mM galactose, 5 mM pyruvate, 4 mM glutamine
# Method: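 Primary screen: FaDu cells were incubated 24 h with Pharmakon 1600 / TDI oncology set compounds at 2 or 10 uM. Mitochondrial-specific OCR (basal minus 2 uM antimycin A) was measured on a Seahorse XF96 in assay medium with 5 mM galactose, 5 mM pyruvate and 4 mM glutamine, then corrected for Hoechst cell number and expressed as a Z score […]. Compounds that cut cell number by >66% were excluded. Two repeats.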
Structure (SMILES),mitochondrial oxygen consumption rate normalised (2 µM),mitochondrial oxygen consumption rate normalised (10 µM)
O=C(O)c1cn(C2CC2)c2cc(N3CCNCC3)c(F)cc2c1=O,0.674 ± 1.6,
CCOC(=O)COc1ccc2c(=O)cc(-c3ccccc3)oc2c1,-0.73 ± 0.13,
Cc1ccc(NC(=O)c2ccc(CN3CCN(C)CC3)cc2)cc1Nc1nccc(-c2cccnc2)n1,0.691 ± 1,
Cc1ccc(NC(=O)c2ccc(CN3CCN(C)CC3)cc2)cc1Nc1nccc(-c2cccnc2)n1 [Imatinib Mesylate],0.127 ± 0.32,
O=C(O)C(=O)O.[NH-][C@@H]1CCCC[C@H]1[NH-].[Pt+2] [Oxaliplatin],0.906 ± 0.32,
O=C(O)C(=O)O.[NH-][C@@H]1CCCC[C@H]1[NH-].[Pt+2],0.333 ± 0.048,
C[C@](N)(Cc1ccc(O)c(O)c1)C(=O)O,-0.0933 ± 0.61,
Clc1ccc(C(Cn2ccnc2)OCc2ccsc2Cl)c(Cl)c1 (stereo unspecified),0.354 ± 0.2,
C[C@H]1c2cccc(O)c2C(=O)C2=C(O)[C@]3(O)C(=O)C(C(N)=O)=C(O)[C@@H](N(C)C)[C@@H]3[C@@H](O)[C@@H]21,-0.593 ± 0.25,
O=C1/C(=C/c2cccs2)CCC/C1=C\c1cccs1,-0.106 ± 0.52,
CC(=O)NC(Cc1ccccc1)C(=O)O (stereo unspecified),0.547 ± 1.5,0.121 ± 0.33
COc1ccc(O)cc1,1.11 ± 0.24,
CCCCCCCCCCCCCCCCCCCCCCO,-0.677 ± 0.55,
NCCCC(=O)O [gamma-AMINOBUTYRIC ACID],-0.0567 ± 0.5,
CCCCCCOC(=O)NC(=N)c1ccc(NCc2nc3cc(C(=O)N(CCC(=O)OCC)c4ccccn4)ccc3n2C)cc1,0.523 ± 0.02,
CC(O)C(=O)[O-].[Na+] (stereo unspecified),1.28 ± 0.5,
CN[C@@H]1[C@@H](O[C@H]2O[C@H](CO)[C@@H](N)[C@H](O)[C@H]2O)OC2C[C@@H](N)[C@@H](O[C@H]3[C@H](O)[C@@H](O)[C@H](N)C[C@@H]3N)OC2[C@@H]1O (stereo partly specified),-0.0917 ± 0.79,
C[C@@H]1NC(=O)[C@@H](N)CNC(=O)[C@H](C2CCNC(=N)N2)NC(=O)/C(=C/NC(N)=O)NC(=O)[C@H](CNC(=O)CC(N)CCCN)NC1=O.N=C1NCC[C@H]([C@@H]2NC(=O)/C(=C/NC(N)=O)NC(=O)[C@H](CNC(=O)C[C@@H](N)CCCN)NC(=O)[C@H](CO)NC(=O)[C@@H](N)CNC2=O)N1 (H-[Dap]S[Dap](ξβ3hOrn)[ΔAla(Z-3-ureido)][X2]; lactam 1-C),-0.285 ± 0.7,
CC12CCC(CC1=O)C2(C)C (stereo unspecified),-0.569 ± 0.12,0.477 ± 0.051
C#Cc1cccc(Nc2ncnc3cc(OCCOC)c(OCCOC)cc23)c1 [Erlotinib HCl],0.0528 ± 0.32,
Cc1onc(-c2ccccc2Cl)c1C(=O)N[C@@H]1C(=O)N2[C@@H]1SC(C)(C)[C@@H]2C(=O)O,0.345 ± 0.35,
CN[C@@H]1[C@H](O)[C@H](NC)[C@H]2O[C@@]3(O)C(=O)C[C@@H](C)O[C@H]3O[C@@H]2[C@H]1O,-0.534 ± 0.45,

Structure (SMILES),mitochondrial oxygen consumption rate normalised (2 µM),mitochondrial oxygen consumption rate normalised (10 µM)
NS(=O)(=O)c1cc2c(cc1Cl)NC(C(Cl)Cl)NS2(=O)=O (stereo unspecified),0.533 ± 0.3,
OCc1cccnc1,0.453 ± 0.17,
CN1CCC[C@@H]1Cc1c[nH]c2ccc(CCS(=O)(=O)c3ccccc3)cc12,0.126 ± 0.85,
CC(C)[N+](C)(CCOC(=O)C1c2ccccc2Oc2ccccc21)C(C)C,0.497 ± 0.85,
CN(C)CCC=C1c2ccccc2COc2ccccc21,-0.927 ± 0.5,
CCC[C@@H]1C[C@@H](C(=O)N[C@@H]([C@H]2O[C@H](SC)[C@H](O)[C@@H](O)[C@H]2O)[C@H](C)Cl)N(C)C1,-0.0755 ± 1.8,
O=C(O)CCNC(=O)c1ccccc1,-0.305 ± 0.54,
O=C(N[C@H](CO)[C@H](O)c1ccc([N+](=O)[O-])cc1)C(Cl)Cl,-3.2 ± 0.058,
C[n+]1c2cc(N)ccc2cc2ccc(N)cc21,-1.61 ± 0.45,
CC1=NN(c2ccccc2)C(=O)C1,0.119 ± 0.27,
Cn1cnc2c1c(=O)[nH]c(=O)n2C,-0.181 ± 0.61,
CCOc1ccc2ccccc2c1C(=O)N[C@@H]1C(=O)N2[C@@H]1SC(C)(C)[C@@H]2C(=O)O,0.744 ± 2.1,
CC(C)(CO)C(O)C(=O)NCCCO (stereo unspecified),-0.503 ± 0.67,
CCN(CC)CCNC(=O)c1cc(Cl)c(N)cc1OC,0.496 ± 0.79,
C[n+]1cc2c3c(ccc2c2ccc4cc5c(cc4c21)OCO5)OCO3,-1.31 ± 0.22,
Clc1ccc(CSC(Cn2ccnc2)c2ccc(Cl)cc2Cl)cc1 (stereo unspecified),-0.166 ± 0.046,
Nc1ncnc2c1ncn2[C@@H]1O[C@H](CO)[C@@H](O)[C@H]1O,0.273 ± 0.33,
CC(=O)O[C@@]12CO[C@@H]1C[C@H](O)[C@@]1(C)C(=O)[C@H](O)C3=C(C)[C@@H](OC(=O)[C@H](O)[C@@H](NC(=O)OC(C)(C)C)c4ccccc4)C[C@@](O)([C@@H](OC(=O)c4ccccc4)[C@H]21)C3(C)C,0.806 ± 0.26,
CC(=O)O[C@@]12CO[C@@H]1C[C@H](O)[C@@]1(C)C(=O)[C@H](O)C3=C(C)[C@@H](OC(=O)[C@H](O)[C@@H](NC(=O)OC(C)(C)C)c4ccccc4)C[C@@](O)([C@@H](OC(=O)c4ccccc4)[C@H]21)C3(C)C [Docetaxel],0.0314 ± 0.21,
C=CC1=C(C)c2cc3[nH]c(cc4nc(cc5[nH]c(cc1n2)c(C)c5CCC(=O)O)C(CCC(=O)O)=C4C)c(C)c3C=C,-1.24 ± 0.029,
CN(C)CCN(Cc1ccccc1)c1ccccn1,0.451 ± 0.24,
CO[C@H]1C[C@@H]2CC[C@@H](C)[C@@](O)(O2)C(=O)C(=O)N2CCCC[C@H]2C(=O)O[C@H]([C@H](C)C[C@@H]2CC[C@@H](OCCO)[C@H](OC)C2)CC(=O)[C@H](C)/C=C(\C)[C@@H](O)[C@@H](OC)C(=O)[C@H](C)C[C@H](C)/C=C/C=C/C=C/1C [Everolimus],0.0924 ± 0.2,

Structure (SMILES),mitochondrial oxygen consumption rate normalised (2 µM),mitochondrial oxygen consumption rate normalised (10 µM)
CO[C@H]1C[C@@H]2CC[C@@H](C)[C@@](O)(O2)C(=O)C(=O)N2CCCC[C@H]2C(=O)O[C@H]([C@H](C)C[C@@H]2CC[C@@H](OCCO)[C@H](OC)C2)CC(=O)[C@H](C)/C=C(\C)[C@@H](O)[C@@H](OC)C(=O)[C@H](C)C[C@H](C)/C=C/C=C/C=C/1C,,-1.07 ± 0.18
CC(O)C(=O)O.N (stereo unspecified),0.473 ± 1.2,0.0377 ± 0.64
Nc1ccn([C@@H]2O[C@H](CO)[C@@H](O)C2(F)F)c(=O)n1 [Gemcitabine HCl],1.44 ± 1.1,
CN1C(=O)CC(c2ccccc2)C1=O (stereo unspecified),-0.0825 ± 0.35,
O=C(O)CC(O)(CC(=O)O)C(=O)O,0.655 ± 0.15,
COc1cc(O)c(C(=O)c2ccccc2)cc1S(=O)(=O)O,-0.539 ± 0.37,
CCCCCCCCCC(=O)N[C@@H](Cc1c[nH]c2ccccc12)C(=O)N[C@@H](CC(N)=O)C(=O)N[C@@H](CC(=O)O)C(=O)N[C@@H]1C(=O)NCC(=O)N[C@@H](CCCN)C(=O)N[C@@H](CC(=O)O)C(=O)N[C@H](C)C(=O)N[C@@H](CC(=O)O)C(=O)NCC(=O)N[C@H](CO)C(=O)N[C@@H]([C@H](C)CC(=O)O)C(=O)N[C@@H](CC(=O)c2ccccc2N)C(=O)O[C@@H]1C [DAPTOMYCIN (5 millimolar/DMSO)],1.41 ± 0.085,
N=C(N)NC(=O)Cc1c(Cl)cccc1Cl,0.199 ± 0.068,
N[C@@H](Cc1cc(I)c(Oc2cc(I)c(O)c(I)c2)c(I)c1)C(=O)O,0.754 ± 1.2,
CN(C)CC/C=C1/c2ccccc2Sc2ccc(Cl)cc21,0.0476 ± 0.38,
CC(=O)[C@H]1CC[C@H]2[C@@H]3CCC4=CC(=O)CC[C@]4(C)[C@H]3CC[C@]12C,-1.32 ± 0.84,
CN(C)CCOC(c1ccccc1)c1ccccc1,-0.511 ± 0.6,
COc1ccc2[nH]c([S+]([O-])Cc3ncc(C)c(OC)c3C)nc2n1 (stereo unspecified),-0.907 ± 0.5,
O=C(O)CCCCC(=O)O,0.708 ± 0.02,
CCN(CC)C(=O)c1cccnc1,-0.643 ± 0.38,-0.362 ± 0.74
CCN(CC)C(=O)c1cccc(C)c1,-0.787 ± 0.48,
CCCN(CCC)S(=O)(=O)c1ccc(C(=O)O)cc1,0.557 ± 0.71,
C[C@]12CC[C@@H]3c4ccc(O)cc4CC[C@H]3[C@@H]1CC[C@@H]2O,-0.383 ± 0.83,
Cc1ncc(CO)c(CO)c1O,-0.357 ± 0.28,
CC1(C)[C@H](C(=O)O)N2C(=O)C[C@H]2S1(=O)=O,0.232 ± 1.1,
CCC1(c2ccccc2)NC(=O)N(C)C1=O (stereo unspecified),-0.348 ± 0.29,
N[C@@H](CCC(=O)N[C@@H](CS)C(=O)NCC(=O)O)C(=O)O,-0.407 ± 0.47,

# Some values from the results shown.
# For mitochondrial oxygen consumption rate normalised (2 µM), CC(O)C(=O)[O-].[Na+] (stereo unspecified) shows 1.28 ± 0.5
# For mitochondrial oxygen consumption rate normalised (2 µM), Cc1onc(-c2ccccc2Cl)c1C(=O)N[C@@H]1C(=O)N2[C@@H]1SC(C)(C)[C@@H]2C(=O)O shows 0.345 ± 0.35

# Later entries.

Structure (SMILES),mitochondrial oxygen consumption rate normalised (2 µM),mitochondrial oxygen consumption rate normalised (10 µM)
CC1=C(C(=O)O)N2C(=O)[C@@H](NC(=O)[C@H](N)C3=CCC=CC3)[C@H]2SC1,1.38 ± 0.46,
COc1cc(C(=O)NCCCCCC(=O)O)cc(OC)c1OC,0.791 ± 0.3,
CCc1c(C)[nH]c2c1C(=O)C(CN1CCOCC1)CC2 (stereo unspecified),1.29 ± 0.028,
CC1=C(/C=C/C(C)=C/C=C/C(C)=C/C(=O)O)C(C)(C)CCC1 [Tretinoin],0.491 ± 0.14,
CC1=C(/C=C/C(C)=C/C=C/C(C)=C/C(=O)O)C(C)(C)CCC1,-0.4 ± 0.61,
NC[C@@H]1CC[C@@H](N)[C@@H](O[C@H]2[C@H](O)[C@@H](O[C@H]3O[C@H](CO)[C@@H](O)[C@H](N)[C@H]3O)[C@H](N)C[C@@H]2N)O1,0.286 ± 0.12,
N=C(N)NS(=O)(=O)c1ccc(N)cc1,-0.223 ± 0.73,
CC(=O)Oc1ccccc1C(=O)O,-0.361 ± 1.2,0.27 ± 0.45
Clc1ccc(Cn2c(CN3CCCC3)nc3ccccc32)cc1,0.144 ± 0.68,
COc1cc2nc(N(C)CCCNC(=O)C3CCCO3)nc(N)c2cc1OC (stereo unspecified),-0.277 ± 0.29,
CCCCCCCCCCCCCCCC(=O)OC[C@@H](NC(=O)C(Cl)Cl)[C@H](O)c1ccc([N+](=O)[O-])cc1,-2.81 ± 0.43,
N[C@@H]1CONC1=O,0.0807 ± 0.93,
O=C(O)COCCN1CCN(C(c2ccccc2)c2ccc(Cl)cc2)CC1 (stereo unspecified),0.69 ± 0.87,
CCCCC(CC)CCC(CC(C)C)OS(=O)(=O)O (stereo unspecified),0.429 ± 0.41,0.745 ± 1.4
Clc1ccc(CO/N=C(\Cn2ccnc2)c2ccc(Cl)cc2Cl)c(Cl)c1,-0.413 ± 1.3,
CC(=O)O[C@]1(C(C)=O)CC[C@H]2[C@@H]3C=C(Cl)C4=CC(=O)[C@@H]5C[C@@H]5[C@]4(C)[C@H]3CC[C@@]21C,0.275 ± 1.9,
O=C1c2ccccc2C(=O)C1c1ccc(Cl)cc1,-0.273 ± 0.41,
C#C[C@]1(OC(C)=O)CC[C@H]2[C@@H]3CCC4=CC(=NO)CC[C@@H]4[C@H]3CC[C@@]21CC (mixture of isomers),-0.0621 ± 0.43,
CCOC(=O)[C@H](CCc1ccccc1)N[C@@H](C)C(=O)N1Cc2ccccc2C[C@H]1C(=O)O,0.106 ± 0.19,

# Rewritten with tabs: part of the list above
Structure (SMILES)	mitochondrial oxygen consumption rate normalised (2 µM)	mitochondrial oxygen consumption rate normalised (10 µM)
N=C(N)NS(=O)(=O)c1ccc(N)cc1	-0.223 ± 0.73	
CC(=O)Oc1ccccc1C(=O)O	-0.361 ± 1.2	0.27 ± 0.45
